Measurements: article PMC8281315
Results are given in words; binding and its absence hold for the method and conditions named. In cells and extracts the contact can be indirect. Some results given as binding are weak or reduced against the parent protein; the word gives no strength.

The chains behind the UniProt entries cited, without tags or fusion partners. Residues count along the entry.
UniProt P30530, residues 26-894: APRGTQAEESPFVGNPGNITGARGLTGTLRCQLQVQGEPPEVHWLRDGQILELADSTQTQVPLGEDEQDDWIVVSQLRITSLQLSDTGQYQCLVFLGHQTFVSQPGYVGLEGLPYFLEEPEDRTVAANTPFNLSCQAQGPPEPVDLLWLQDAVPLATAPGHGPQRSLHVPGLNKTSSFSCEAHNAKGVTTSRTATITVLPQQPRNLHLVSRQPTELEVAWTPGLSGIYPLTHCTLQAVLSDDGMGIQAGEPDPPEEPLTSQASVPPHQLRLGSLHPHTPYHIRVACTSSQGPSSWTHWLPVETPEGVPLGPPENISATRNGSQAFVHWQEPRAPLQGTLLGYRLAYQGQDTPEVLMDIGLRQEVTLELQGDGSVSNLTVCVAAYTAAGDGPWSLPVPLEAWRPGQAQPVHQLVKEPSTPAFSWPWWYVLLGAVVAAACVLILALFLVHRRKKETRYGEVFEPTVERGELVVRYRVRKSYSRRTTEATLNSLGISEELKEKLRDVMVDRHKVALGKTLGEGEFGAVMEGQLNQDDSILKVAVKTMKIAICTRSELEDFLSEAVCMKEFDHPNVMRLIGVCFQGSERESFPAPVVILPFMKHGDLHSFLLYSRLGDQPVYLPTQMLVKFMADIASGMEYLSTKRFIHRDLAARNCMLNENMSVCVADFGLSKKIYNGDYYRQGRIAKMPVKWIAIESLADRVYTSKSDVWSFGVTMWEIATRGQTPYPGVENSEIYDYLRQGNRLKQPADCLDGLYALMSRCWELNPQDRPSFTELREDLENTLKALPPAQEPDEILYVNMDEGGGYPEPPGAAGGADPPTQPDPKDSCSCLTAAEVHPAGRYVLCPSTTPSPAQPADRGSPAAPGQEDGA

T1: Netrin-G1 (NTNG1) (human (endogenous in SKOV3)) (UniProt Q9Y2I2)
T1 sequence: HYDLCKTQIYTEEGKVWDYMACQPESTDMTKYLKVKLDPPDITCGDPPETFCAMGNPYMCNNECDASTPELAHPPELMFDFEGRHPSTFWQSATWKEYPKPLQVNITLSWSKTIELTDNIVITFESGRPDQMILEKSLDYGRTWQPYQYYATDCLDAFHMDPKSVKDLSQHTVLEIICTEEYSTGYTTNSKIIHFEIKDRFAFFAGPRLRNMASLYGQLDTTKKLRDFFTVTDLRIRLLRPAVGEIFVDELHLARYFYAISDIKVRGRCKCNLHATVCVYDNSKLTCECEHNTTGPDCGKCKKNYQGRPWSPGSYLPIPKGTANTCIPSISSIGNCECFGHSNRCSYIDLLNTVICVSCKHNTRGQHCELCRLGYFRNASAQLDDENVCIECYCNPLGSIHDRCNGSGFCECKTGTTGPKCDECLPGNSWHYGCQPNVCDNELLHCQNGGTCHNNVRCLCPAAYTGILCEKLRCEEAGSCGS

B1: growth arrest-specific 6 (GAS6) (ligand, UniProt Q14393 31-678)
chain: ALLPAREATQFLRPRQRRAFQVFEEAKQGHLERECVEELCSREEAREVFENDPETDYFYPRYLDCINKYGSPYTKNSGFATCVQNLPDQCTPNPCDRKGTQACQDLMGNFFCLCKAGWGGRLCDKDVNECSQENGGCLQICHNKPGSFHCSCHSGFELSSDGRTCQDIDECADSEACGEARCKNLPGSYSCLCDEGFAYSSQEKACRDVDECLQGRCEQVCVNSPGSYTCHCDGRGGLKLSQDMDTCEDILPCVPFSVAKSVKSLYLGRMFSGTPVIRLRFKRLQPTRLVAEFDFRTFDPEGILLFAGGHQDSTWIVLALRAGRLELQLRYNGVGRVTSSGPVINHGMWQTISVEELARNLVIKVNRDAVMKIAVAGDLFQPERGLYHLNLTVGGIPFHEKDLVQPINPRLDGCMRSWNWLNGEDTTIQETVKVNTRMQCFSVTERGSFYPGSGFAFYSLDYMRTPLDVGTESTWEVEVVAHIRPAADTGVLFALWAPDLRAVPLSVALVDYHSTKKLKKQLVVLAVEHTALALMEIKVCDGQEHVVTVSLRDGEATLEVDGTRGQSEVSAAQLQERLAVLERHLRSPVLTFAGGLPDVPVTSAPVTAFYRGCMTLEVNRRLLDLDEAAYKHSDITAHSCPPVEPAAA

Target: T1, Netrin-G1 (NTNG1) (human (endogenous in SKOV3))
Experiment: co-IP; anti-NTNG1 antibody (Santa Cruz) on protein A/G beads; lysates of NTNG1- or NC-transfected SKOV3 cells in RIPA buffer with PMSF; eluted proteins blotted for NTNG1, GAS6, AXL and p-AXL

binding, binds:
phosphorylated AXL (p-AXL) (from UniProt P30530 26-894) (receptor)
receptor tyrosine kinase AXL (from UniProt P30530 26-894)
B1
